The target in assay [1] is T1, Sialin/Sialin2 (NRK cells) (rat (endogenous in NRK-52E)) (UniProt Q5Q0U0).
T1 sequence: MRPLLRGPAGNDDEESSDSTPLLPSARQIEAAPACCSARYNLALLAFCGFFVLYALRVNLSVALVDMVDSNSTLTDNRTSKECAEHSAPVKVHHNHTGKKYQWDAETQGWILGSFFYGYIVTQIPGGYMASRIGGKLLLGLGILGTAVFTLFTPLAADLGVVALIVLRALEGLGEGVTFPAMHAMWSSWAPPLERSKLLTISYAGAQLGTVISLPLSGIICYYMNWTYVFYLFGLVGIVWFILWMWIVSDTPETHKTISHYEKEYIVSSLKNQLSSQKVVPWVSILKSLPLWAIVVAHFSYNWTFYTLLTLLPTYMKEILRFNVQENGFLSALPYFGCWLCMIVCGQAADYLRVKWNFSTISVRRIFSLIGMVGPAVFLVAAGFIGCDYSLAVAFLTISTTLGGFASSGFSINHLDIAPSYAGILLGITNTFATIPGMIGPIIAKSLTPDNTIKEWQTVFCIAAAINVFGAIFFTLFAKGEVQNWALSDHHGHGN
Nature of the assay: proximity ligation.

The chains behind the UniProt entries cited, without tags or fusion partners.
UniProt Q07014: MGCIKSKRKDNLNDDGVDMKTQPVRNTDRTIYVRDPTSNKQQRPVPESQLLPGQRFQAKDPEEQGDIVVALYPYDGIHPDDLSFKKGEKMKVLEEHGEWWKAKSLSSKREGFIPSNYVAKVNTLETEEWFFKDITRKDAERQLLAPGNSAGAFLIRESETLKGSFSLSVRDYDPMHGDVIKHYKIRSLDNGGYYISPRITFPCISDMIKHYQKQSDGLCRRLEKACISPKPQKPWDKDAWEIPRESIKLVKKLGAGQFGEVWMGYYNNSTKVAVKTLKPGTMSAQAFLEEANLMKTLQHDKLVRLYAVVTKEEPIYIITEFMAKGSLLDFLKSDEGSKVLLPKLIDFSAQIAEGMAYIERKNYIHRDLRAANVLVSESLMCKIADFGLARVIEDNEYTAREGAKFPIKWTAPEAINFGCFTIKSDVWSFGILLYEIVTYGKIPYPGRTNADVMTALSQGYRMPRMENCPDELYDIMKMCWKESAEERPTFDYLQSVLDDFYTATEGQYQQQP

Assay [2] addresses T2, Sialin/Sialin2 (human cells) (human (endogenous in HeLa and HUVEC)) (UniProt Q9NRA2).
T2 sequence: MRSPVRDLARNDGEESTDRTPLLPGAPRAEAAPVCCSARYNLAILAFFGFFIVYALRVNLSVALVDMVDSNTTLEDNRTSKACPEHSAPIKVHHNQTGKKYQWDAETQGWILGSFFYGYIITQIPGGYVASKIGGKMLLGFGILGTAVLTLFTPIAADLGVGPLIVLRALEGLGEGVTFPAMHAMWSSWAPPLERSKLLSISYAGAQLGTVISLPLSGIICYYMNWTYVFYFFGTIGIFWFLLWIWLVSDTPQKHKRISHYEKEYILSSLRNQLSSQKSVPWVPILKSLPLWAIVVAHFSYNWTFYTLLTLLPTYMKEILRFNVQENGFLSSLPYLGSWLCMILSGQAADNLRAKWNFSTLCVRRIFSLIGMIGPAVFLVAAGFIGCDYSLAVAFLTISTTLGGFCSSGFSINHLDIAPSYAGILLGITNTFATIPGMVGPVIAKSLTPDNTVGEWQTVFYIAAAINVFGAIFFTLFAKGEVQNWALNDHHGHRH
Put plainly: proximity ligation.

These are yes or no findings as the source states them, for the method shown. Binding seen in cells or lysates may run through a third protein. Some entries that bind do so weakly or less than the wild type.

Take “Lyn kinase (NRK cells) (from UniProt Q07014 1-512) (enzyme)”: in assay [1], the binding result is “binds”.
As to “epidermal growth factor receptor (EGFR) (human cells) (from UniProt P00533 25-1210)”, the binding entry in assay [2] is reported as “binds”.

The record behind these values is publication doi:10.1101/2025.05.04.652107.
